From publication PMC8360560

The chains behind the UniProt entries cited, without tags or fusion partners. Where a name states a change or a piece, a line headed by the entry shows the natural chain unless it says otherwise.
UniProt Q382W6: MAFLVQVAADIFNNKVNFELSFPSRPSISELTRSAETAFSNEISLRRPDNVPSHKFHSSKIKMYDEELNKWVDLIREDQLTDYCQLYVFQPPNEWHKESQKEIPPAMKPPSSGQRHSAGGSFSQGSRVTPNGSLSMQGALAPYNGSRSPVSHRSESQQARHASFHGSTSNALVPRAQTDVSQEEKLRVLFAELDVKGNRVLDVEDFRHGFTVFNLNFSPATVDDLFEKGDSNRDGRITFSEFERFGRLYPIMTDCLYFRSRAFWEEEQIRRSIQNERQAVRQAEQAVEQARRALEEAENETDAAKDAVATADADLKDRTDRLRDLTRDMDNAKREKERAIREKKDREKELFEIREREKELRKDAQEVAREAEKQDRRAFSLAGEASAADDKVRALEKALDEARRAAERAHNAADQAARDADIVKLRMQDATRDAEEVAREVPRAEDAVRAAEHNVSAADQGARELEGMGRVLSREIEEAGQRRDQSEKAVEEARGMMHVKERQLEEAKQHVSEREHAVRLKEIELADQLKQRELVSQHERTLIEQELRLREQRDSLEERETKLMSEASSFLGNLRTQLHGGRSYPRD

Target: BILBO2 (Tb927.6.3240), full-length (Trypanosoma brucei (Tb927 genomic DNA)) (UniProt Q584W7)
Assay: two-hybrid; direct tests on SC-W-L-H (minus histidine) medium, photos after 3 days; BILBO2 and its domains as bait (pGBKT7)

In the case of BILBO1 (from UniProt Q382W6), the binding is reported as “binds”.

No constants are given. Whether binding was seen depends on the method and setting. Binding calls can cover weak binding; strength is not graded here.
